# Data source: PubChem BioAssay AID1053208 (Peter MacCallum Cancer Centre, 2014)
# Aim: 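Genes whose silencing cuts survival of bone tumour cells only with doxorubicin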 (primary screen)
# System: mouse osteosarcoma cells, early-passage culture from an engineered mouse model of fibroblastic bone tumour
# Reagents: siRNA pool against mouse genes, 40 nM
# Time to read-out: about 120 h (48 h before drug, then 72 h with drug)
# Challenge: doxorubicin 100 nM for 72 h, roughly 30-40% inhibitory dose
# Measured: 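Viability read as ATP luminescence after 72 h of 100 nM doxorubicin or none, duplicate wells averaged, scaled to non-targeting siRNA, then expressed as robust z-scores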
# Direction: viability z-score with doxorubicin: higher = more viable cells under doxorubicin; viability z-score without drug: higher = more viable cells with knock-down alone
# Hit rule: 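a pool counts as active when its viability z-score with doxorubicin is -2 or below and its z-score without drug lies between -2 and 2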
# The whole screen tested about 17,000 reagents; shown is an unselected part. 788 of all reagents (4.7%) count as active. 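Calls rest on z-score classes alone; an extra cut-off of viability at most 70% of control was not applied to them.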 Further read-outs or replicates are left out here.
gene symbol,combined z-score class,viability z-score with doxorubicin,viability z-score without drug,outcome
Lamc3,high cell count without drug only,1.12,2.19,inactive
Smim48,no change with or without drug,-1.91,-0.17,inactive
Mepe,high cell count without drug only,1.24,3.37,inactive
Nenf,no change with or without drug,-0.67,1.35,inactive
Nrbp1,low cell count without drug only,-1.12,-2.36,inactive
Map6d1,no change with or without drug,1.35,0,inactive
Armh3,no change with or without drug,-0.11,-0.51,inactive
Slc22a7,no change with or without drug,-0.67,-0.51,inactive
Dmrt2,no change with or without drug,-0.34,-0.67,inactive
Adamts16,no change with or without drug,-1.24,0,inactive
Snx20,no change with or without drug,0,0.51,inactive
Romo1,low cell count with doxorubicin only,-3.26,1.35,active
Or8b1,high cell count with doxorubicin only,2.36,1.85,inactive
Mrc1,no change with or without drug,1.35,0,inactive
Ndufs8,no change with or without drug,0.56,-0.84,inactive
Fsip1,no change with or without drug,0.45,-0.17,inactive
Ripply3,no change with or without drug,-0.9,0.84,inactive
Gabra1,no change with or without drug,0.67,-0.34,inactive
Magi1,no change with or without drug,1.01,1.18,inactive
Acot12,no change with or without drug,0.11,0.84,inactive
Cmtm3,no change with or without drug,-1.35,-1.52,inactive
Maged2,no change with or without drug,-0.45,-1.52,inactive
Evx2,no change with or without drug,-1.12,0.51,inactive
Ccdc22,low cell count with doxorubicin only,-3.15,1.01,active
Dhdds,no change with or without drug,0.67,0.51,inactive
Nampt,no change with or without drug,0.11,-0.17,inactive
Cct2,low cell count without drug only,0.11,-2.53,inactive
Card11,low cell count with doxorubicin only,-2.25,-0.17,active
6030445D17Rik,no change with or without drug,-0.56,-0.51,inactive
Or6f1,low cell count without drug only,0.45,-2.19,inactive
Nup58,no change with or without drug,1.35,-0.67,inactive
Cfap20dc,no change with or without drug,-0.67,1.18,inactive
Kcnf1,no change with or without drug,0.79,1.69,inactive
Crebzf,no change with or without drug,0.22,1.01,inactive
Fez1,no change with or without drug,-0.67,0.51,inactive
Rbm39,low cell count with doxorubicin only,-3.26,-1.01,active
Rxrb,no change with or without drug,-0.45,-0.17,inactive
Smap2,no change with or without drug,0.11,1.18,inactive
Msantd5l,no change with or without drug,-0.22,-0.51,inactive
Defa3,no change with or without drug,-0.11,1.52,inactive
Emd,no change with or without drug,0,-0.17,inactive
Vmn1r233,high cell count without drug only,-0.45,3.2,inactive
Skint2,no change with or without drug,0.67,1.01,inactive
Hoxd8,no change with or without drug,-0.34,-1.69,inactive
Adamts18,no change with or without drug,0.22,0.51,inactive
Trhr2,high cell count with doxorubicin only,2.25,-0.17,inactive
Clnk,no change with or without drug,-1.35,-0.17,inactive
Asgr2,no change with or without drug,-1.12,-0.84,inactive
Vwf,no change with or without drug,-0.45,0.17,inactive
Rspo4,no change with or without drug,0,0.51,inactive

Reagents listed so far marked active:
gene symbol,combined z-score class,viability z-score with doxorubicin,viability z-score without drug,outcome
Romo1,low cell count with doxorubicin only,-3.26,1.35,active
Ccdc22,low cell count with doxorubicin only,-3.15,1.01,active
Card11,low cell count with doxorubicin only,-2.25,-0.17,active
Rbm39,low cell count with doxorubicin only,-3.26,-1.01,active
